From doi:10.1101/2020.02.07.938977
Results are given in words; binding and its absence hold for the method and conditions named.

Molecular target: tomato ortholog of Arabidopsis F-box protein STERILE APETALA (SAP) (tomato (Solanum lycopersicum))
Test: two-hybrid

Row | binding | Substance
1 | no binding | tomato PEAPOD 1 (PPD1) (from UniProt A0A3Q7HYU3)
2 | no binding | tomato PEAPOD 2 (PPD2) (from UniProt A0A190V579)
